Among all 200,000 compounds or so, about 25 (0.01%) were called active. The shares of active, inactive and inconclusive entries below differ from those in the screen. Calls come from the whole dose curve; as a rule, active = well fitted inhibition curve with a large enough effect in the signal ratio, with a control signal flat (not every such curve was filed as active); inconclusive = small, poorly fitted or top-dose-only effect, or effect the other way, or a change in a side signal; inactive = flat fitted curve, though single readings scatter; the % refers to the signal ratio. Potencies of inconclusive entries are doubtful fits and often do not repeat.
Test: qHTS Assay for Modulators of Lamin A Splicing
Conditions: HeLa LMNA splicing GFP/RFP minigene ratio, 48 h; ratio change, negative = inhibition: at 46.1 µM (top of the series) unless noted
How it was run: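 S3 HeLa cells stably expressing lamin A-EGFP splicing minigene plus DsRed2, 600 cells/well, 48 h compound exposure at 37C. Laser-scanning cytometry; analysed as GFP (500-530 nm)/RFP (575-640 nm) total intensity ratio; 0.5% DMSO vehicle.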
% is set by controls: 0 for no effect and ±100 for the full control effect; potency is the fitted concentration of half-maximal effect.

Compound	ratio change, negative = inhibition	Potency
Cc1ccc(S(=O)(=O)N(CCO)Cc2cc3ccc(C)c(C)c3[nH]c2=O)cc1	inconclusive: -16.4%	
O=C(CCCCCNC(=O)c1ccccc1)N/N=C/c1ccccc1O	inactive: -18.7%	
O=C(O)/C=C\C(=O)Nc1ccc(Oc2ccc(Br)cc2)cc1	inactive: 21.6% [at 46 µM]	
COc1cc(C(=O)NCc2ccc3c(c2)CCN3C(=O)c2ccc(Cl)cc2)cc(OC)c1OC	inconclusive: -25.8% [at 46 µM]	
Cc1ccc(NC(=O)CSc2nc3ccc(NC(=O)c4ccco4)cc3s2)cc1	inconclusive: 34.6% [at 46 µM]	
CCCCOC(=O)c1ccc(NC(=O)CSc2nncn2C)cc1	inactive: -3.61%	
Cc1[nH]c(=O)[nH]c(=O)c1CSc1nnc(CCCCCNC(=O)OC(C)(C)C)o1	inactive: -6%	
Cc1ccc(NC(=S)NCc2ccc3[nH]c4c(c3c2)CCCC4)cc1	inconclusive: -49.9%	
c1ccc(N2CCN(c3nc(-c4cccs4)nc4ccccc34)CC2)cc1	inconclusive: -45.2%	
O=C(Nc1cccc(C(=O)OCc2cc(=O)n3c4c(sc3n2)CCCC4)c1)c1cccc(F)c1	inconclusive: -19.7% [at 46 µM]	
Cc1cccc(C)c1NC(=O)C1CCCCN1C (stereo unspecified)	inconclusive: -16.7%	
CCOC(=O)c1c(C)oc2cc(Br)c(OC(C)C(=O)OCC)cc12 (stereo unspecified)	inconclusive: 13.1%	
COc1ccc(C2C(=O)c3ccccc3C2=O)cc1	inconclusive: -11%	
O=C(Nc1ccc(Cc2ccncc2)cc1)c1cc([N+](=O)[O-])ccc1N1CCOCC1	inconclusive: 12.8% [at 46 µM]	
Cc1ccc(Cc2nc3ccccc3nc2SCC(=O)NCc2ccc(F)cc2)cc1	inconclusive: -1.06% [at 46 µM]	
Cc1cc(C)c(C#N)c(SCC(=O)c2ccc(Cl)cc2Cl)n1	inconclusive: -8.73%	
CS(=O)(=O)Nc1cccc(-c2nc(Nc3ccccc3)c3ccccc3n2)c1		inconclusive: 35.5 µM [cytotoxic, single point]
COc1ccc(CCNc2ncnc3c2c(-c2ccccc2)cn3-c2ccc(F)cc2)cc1OC	inactive: -0.128% [at 46 µM]	
CN(C)c1ccc(CNC(=O)C2CCN(S(=O)(=O)c3ccc4c(ccn4C)c3)CC2)cc1	inactive: -18.1% [at 46 µM]	
CC(C)(C)NC(=O)NC(=O)COC(=O)CNC(=O)c1cc(Cl)cc([N+](=O)[O-])c1	inconclusive: 8.79% [at 46 µM]	
CCOC(=O)Nc1nnc(-c2ccccc2OC)s1	inactive: -10.1%	

Some values from the list.
For ratio change, negative = inhibition, CN(C)c1ccc(CNC(=O)C2CCN(S(=O)(=O)c3ccc4c(ccn4C)c3)CC2)cc1 shows inactive: -18.1% [at 46 µM]
For ratio change, negative = inhibition, CCCCOC(=O)c1ccc(NC(=O)CSc2nncn2C)cc1 shows inactive: -3.61%
For ratio change, negative = inhibition, c1ccc(N2CCN(c3nc(-c4cccs4)nc4ccccc34)CC2)cc1 shows inconclusive: -45.2%

(further entries)

Compound	ratio change, negative = inhibition	Potency
Cc1ccc(C)c(NC(=O)CN(C)C(=O)COc2ncnc3sccc23)c1	inconclusive: 3.27%	
C#CCOCCOCCOCCNc1nc(N2CCN(C(=O)[C@H]([C@@H](C)O)n3cc(CCCCN)nn3)CC2)nc(N2CCN(C(=O)[C@H](C)n3cc(CCCN=C(N)N)nn3)CC2)n1	inconclusive: 4.99%	
CCOC(=O)N1CCN(S(=O)(=O)c2ccc(OCC)c3ccccc23)CC1		inconclusive: 17.8 µM [fluorescent, single point]
CC(=O)Nc1ccc(Cc2nc3ccccc3[nH]2)cc1	inconclusive: 10.9% [at 46 µM]	
CCN(C(=O)Cn1cc(S(=O)(=O)Cc2ccccc2Cl)c2ccccc21)c1ccccc1	inconclusive: -16.4% [at 46 µM]	
COCCCn1c(SCC(=O)NCc2ccccc2)nc2c(sc3ccccc32)c1=O	inactive: 3.75% [at 46 µM]	
Cc1cccc(OCC(=O)O/N=C(\N)Cc2ccc(Cl)cc2)c1	inconclusive: 9.16%	
COc1ccc2nc(NC(=O)C3CCN(S(=O)(=O)c4cccs4)CC3)sc2c1		inconclusive: 10 µM [falling, partial curve]
O=C(NC(NC1CCS(=O)(=O)C1)C(Cl)(Cl)Cl)c1ccc(Br)cc1 (stereo unspecified)		inconclusive: 35.5 µM [inhibitor, single point]
O=c1c(CCc2ccccc2)nc2cncnc2n1Cc1ccccc1	inconclusive: -12.2%	
CCOc1ccc(C2c3[nH]c4ccccc4c3CCN2C(=O)Cc2cccc(OCC)c2OCC)cc1 (stereo unspecified)	inconclusive: -19.7% [at 46 µM]	
Cn1cc([N+](=O)[O-])c(C(=O)Nc2ccc(C(=O)N3CCCCC3)cc2)n1	inconclusive: -19.7%	
Cn1cc([N+](=O)[O-])c(C(=O)Nc2ccn(C34CC5CC(CC(C5)C3)C4)n2)n1		inconclusive: 25.1 µM [inhibitor, single point]
Cc1ccccc1NC(=O)c1csc2c1CCCC2	inconclusive: -44.5%	
Cc1c(N/C(=N/S(=O)(=O)c2ccc(Cl)cc2)c2ccccc2)c(=O)n(-c2ccccc2)n1C	inconclusive: 10.2%	
N#Cc1ccc(N=c2ssnc2Cl)cc1		inconclusive: 22.4 µM [activator, single point]
Cc1ccc(S(=O)(=O)N2CCN(C(=O)CSc3nc4ccccc4o3)C2)cc1	inconclusive: -32.9%	
COc1cccc(OC)c1C(=O)NC(=S)N1CCOCC1	inactive: -11.5% [at 46 µM]	
CCOC(=O)c1cc(-c2ccc3c(c2)OCCO3)n[nH]1	inconclusive: 2.86% [at 46 µM]	
CCOC(=O)CSC1=C(C#N)C(c2sccc2C)CC(=O)N1 (stereo unspecified)	inconclusive: -12.2%	

— PubChem BioAssay AID1487 (National Center for Advancing Translational Sciences (NCATS), 2009)
